Assay results as given in PubChem BioAssay AID2685 (National Center for Advancing Translational Sciences (NCATS), 2010).
Screen size: about 320,000 compounds; about 2,100 (0.66%) were called active. The shares of active, inactive and inconclusive entries below differ from those in the screen. Calls come from the whole dose curve; as a rule, active = well fitted inhibition curve with a large enough effect in the signal ratio, with a control signal flat (not every such curve was filed as active); inconclusive = small, poorly fitted or top-dose-only effect, or effect the other way, or a change in a side signal; inactive = flat fitted curve, though single readings scatter; the % refers to the signal ratio. Where the call is inconclusive, the potency comes from a doubtful curve fit.

test: qHTS Assay for Lipid Storage Modulators in Drosophila S3 Cells; details: BODIPY lipid droplet fluorescence, 18-24 h, cells fed with added oleic acid; lipid storage change, negative = inhibition: at 46.1 µM (top of the series) unless noted
How it was run: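 Drosophila S3 cells got compounds at several concentrations plus oleic acid (400 uM solution). Laser-scanning cytometry with 488 nm excitation read lipid droplets at 500-530 nm and cells at 575-640 nm. Percent activity was relative to 20 uM Triacsin C.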
% is set by controls: 0 for no effect and ±100 for the full control effect; potency is the fitted concentration of half-maximal effect.

SMILES | Potency | lipid storage change, negative = inhibition
Cc1cccc(NC(=O)c2ccccc2SCc2ccc(F)cc2)n1 | inconclusive: 0.82 µM [activator, full curve] | –
CCOC(=O)N/N=C/c1cn(Cc2ccc(Cl)cc2)c2ccccc12 | – | inconclusive: 9.82%
COc1cc(NS(=O)(=O)c2cc(C(=O)N3CCN(C(C)=O)CC3)ccc2OC)cc(OC)c1 | – | inconclusive: 72%
CCc1cc2c(SCC(=O)N3CCCC3=O)ncnc2s1 | – | inconclusive: -19.6%
Cc1ccc2cc3cc(C(=O)N(CC(=O)NC4CCCC4)c4cccc(C)c4C)sc3nc2c1 | inconclusive: 32.6 µM [falling, single point] | –
CCOc1ccc(-c2nc(CSc3nnc(N)s3)cs2)cc1OC | inconclusive: 0.13 µM [activator, full curve, poor fit] | –
Cc1cc(NC(=O)CNC(=O)C2CCCCC2)no1 | – | inconclusive: -3.53%
Cc1cc(NC(=O)CCCn2nc([N+](=O)[O-])c(Cl)c2C)no1 | – | inconclusive: 49.5%
Cc1ccc(COc2ccc(/C=N/NC(=O)c3nnn(-c4nonc4N)c3COc3ccc(F)cc3)cc2)cc1 | – | inconclusive: -3.01%
O=C(COC(=O)c1ncc(Cl)c(Cl)c1Cl)NCc1cccs1 | – | inconclusive: -21.4%
Cc1onc(-c2ccccc2Cl)c1C(=O)N1CCN(C/C=C/c2ccccc2)CC1 | inconclusive: 0.116 µM [falling, full curve, poor fit] | –
CCOC(=O)C1(CCc2ccccc2)CCN(Cc2ccc(O)cc2)CC1 | – | inconclusive: 6.14%
CCOc1ccc(N2C(=O)CC(Sc3nc(CC(C)C)ccc3C#N)C2=O)cc1 (centres undefined) | – | inconclusive: 24.9%
COC(=O)c1ccccc1Sc1c(/C=N/OCc2ccc(Cl)cc2)c(C(F)(F)F)nn1C | inconclusive: 29.1 µM [activator, single point] | –
OCCC1CN(Cc2cnn(-c3ccccc3Cl)c2)CCN1Cc1ccsc1 (centres undefined) | – | inconclusive: -8.81%
Cc1snc(S(=O)(=O)/C(C#N)=N\Nc2ccccc2)c1C#N | inconclusive: 0.13 µM [activator, full curve, poor fit] | –
Cc1cccc(Oc2nc(-c3cccc([N+](=O)[O-])c3)nc3ccccc23)c1C | – | inconclusive: -2.69%
COc1ccc2c(c1)CC/C(=C\C=C\c1ccccc1OC)C2=O | inconclusive: 29.1 µM [falling, single point] | –
COc1cccc(OCC(O)CO)c1 (centres undefined) | inconclusive: 0.411 µM [falling, full curve, poor fit] | –
COCCNC(=O)C1CCN(S(=O)(=O)c2ccccc2)CC1 | – | inactive
O=C(Nc1ccc(C(=O)O)cc1)Nc1cccc([N+](=O)[O-])c1 | – | inconclusive: 25.8%
Cc1ccc2nc(SCC(=O)N3CC(C)OC(C)C3)nc(=O)n2c1 (centres undefined) | – | inconclusive
Cc1ccc(NC(=O)CN2C(=O)N/C(=C/c3ccc(C)o3)C2=O)cc1 | inconclusive: 29.1 µM [falling, single point] | –
CC1CN(C(=O)c2cc3cc([N+](=O)[O-])ccc3s2)CC(C)O1 (centres undefined) | – | inconclusive: 24.3%
O=C(c1cc(COc2ccc(F)cc2F)on1)N1CCSCC1 | – | inconclusive: 10.1%

An excerpt of these results, tab-delimited.
SMILES	Potency	lipid storage change, negative = inhibition
Cc1ccc(NC(=O)CN2C(=O)N/C(=C/c3ccc(C)o3)C2=O)cc1	inconclusive: 29.1 µM [falling, single point]	–
CC1CN(C(=O)c2cc3cc([N+](=O)[O-])ccc3s2)CC(C)O1 (centres undefined)	–	inconclusive: 24.3%

Carrying on.

SMILES | Potency | lipid storage change, negative = inhibition
O=c1[nH]cc(COCc2ccccc2)c(=O)[nH]1 | – | inconclusive: -72.8%
COc1cc(C2c3c(-c4ccccc4)n[nH]c3C(=O)N2c2ccccc2)ccc1O (centres undefined) | – | inconclusive: 32.7%
COc1ccc(/C=N/NC(=O)c2ccc(NC(=O)c3cccc([N+](=O)[O-])c3)cc2)c(OC)c1 | – | inconclusive: 20%
CCNc1nc(NCc2ccccc2)nc(SCC(=O)Nc2ccccc2)n1 | inconclusive: 18.4 µM [falling, single point] | –
COc1ccc(C)cc1NS(=O)(=O)c1ccc2c(c1)n(C)c(=O)n2C | – | inconclusive: -3.74%
CCOC(=O)c1cc(CC)sc1NC(=O)COC(=O)c1ccccn1 | – | inconclusive: -47.7% [at 0.0737 µM]
Cc1ccc(S(=O)(=O)NCC(=O)N(c2ccccc2)C(C(=O)NCc2ccccc2)c2ccco2)cc1 (centres undefined) | inconclusive: 16.4 µM [activator, single point] | –
CC1(C)CC(C)(c2ccc(O)cc2O)N(c2cccc(Cl)c2)C(=S)N1 (centres undefined) | – | inconclusive: -8.7%
CCCCOCC1CC(CC#CCN2CCCCC2)C(=O)O1 (centres undefined) | inconclusive: 23.1 µM [falling, single point] | –
CCOC(=O)C1(Cc2cccc(Cl)c2)CCCN(C(=O)c2cc(C)[nH]n2)C1 (centres undefined) | – | inconclusive: -7.59%
COc1ccc(/C=N/Nc2ncnc3scc(-c4ccccc4)c23)cc1OC | inconclusive: 0.146 µM [activator, full curve] | –
Cc1cccc(NC(=O)Nc2cccc(F)c2)n1 | inconclusive: 0.206 µM [activator, full curve] | –
CCc1ccc(N2C(=O)C3C4CCC(C4=C(C)C)C3C2=O)cc1 (centres undefined) | – | inconclusive: 2.33%
COc1ccc(NC(C)=O)cc1NC(=O)CSc1nnc(-c2ccccn2)n1C | inconclusive: 14.6 µM [activator, partial curve] | –
Nc1nccnc1C(=O)OCC(=O)C12CC3CC(CC(C3)C1)C2 | – | inconclusive: 9.32%
Cc1cc(=O)oc2cc(OCC(O)CN3CCN(c4ccc(F)cc4)CC3)ccc12 (centres undefined) | – | inconclusive: -8.14%
CCCCOc1ccc2c(c1)C(=O)c1cc(O)ccc1-2 | – | inconclusive: -7.24%
O=C(NCCc1ccccc1)/C(=C\c1ccc([N+](=O)[O-])cc1)NC(=O)c1ccc(Br)cc1 | – | inconclusive: -3.73%
Cc1cc(-c2csc(N)n2)c(C)n1Cc1ccco1 | – | inconclusive: 23.3%
CCOC(=O)CNc1nnc(SCC(=O)OCC)[nH]c1=O | – | inconclusive: -12%
COc1ccc(C(=O)CSc2ncn[nH]2)cc1OC | – | inconclusive: 8.83%
O=C(C1CCOCC1)N1CCCC(N2CCN(c3ccc(F)cc3)CC2)C1 (centres undefined) | – | inconclusive: -0.0419%
COc1cccc(CNC(=O)C2CCN(S(=O)(=O)c3ccc4c(c3)CC(C)N4C(=O)C3CC3)CC2)c1 (centres undefined) | inconclusive: 5.17 µM [activator, full curve, poor fit] | –
Cc1ccc(C(=O)c2coc3ccc(O)c(CN4CCN(C)CC4)c23)cc1 | – | inconclusive: 10.3%
Cc1ccc(C)c(S(=O)(=O)N2CCCCC2CCNC(=O)C(=O)NC2CC2)c1 (centres undefined) | inconclusive: 29.1 µM [falling, single point] | –

SMILES | Potency | lipid storage change, negative = inhibition
O=C(Nc1cccc(S(=O)(=O)N2CCCCC2)c1)c1ccccc1NS(=O)(=O)c1ccc(F)cc1 | inconclusive: 16.4 µM [cytotoxic, partial curve] | –
O=C(CSc1ccccc1)NCCSCc1ccccc1 | – | inconclusive: 34.9%
NC(=O)C1CCN(C(=O)C2CC(=O)N(c3ccc4c(c3)OCCO4)C2)CC1 (centres undefined) | – | inconclusive: 1.03%
COc1ccc(-c2nc(CS(=O)CC(=O)NCCCN3CCCC(C)C3)c(C)o2)cc1OC (centres undefined) | – | inconclusive: 13.8%
CCc1ccc(-c2cc3c(=O)n(CC(=O)N4CCCC4)nc(C)n3n2)cc1 | – | inconclusive: 87.6%
COC(=O)COc1ccc(=O)n(-c2ccccc2)n1 | inconclusive: 29.1 µM [falling, single point] | –
N#CC1(NC(=O)CN2C(=O)c3ccc([N+](=O)[O-])cc3C2=O)CCCCC1 | – | inconclusive: 11.6%
CCN(CC)C(=O)C1CCCN(Cc2ccc(F)c(F)c2)C1 (centres undefined) | – | inconclusive: 1.07%
NC(=O)COC(=O)c1cccc(S(=O)(=O)N2CCN(c3ccccc3)CC2)c1 | – | inconclusive: 2.82%
COCCN(CC(=O)Nc1ccccc1C(F)(F)F)C(=O)c1ccc(-n2cccn2)cc1 | – | inconclusive: 17%
Cc1nnc(NC(=O)c2ccc(S(=O)(=O)C(F)F)cc2)s1 | inconclusive: 0.0041 µM [falling, full curve, poor fit] | –
O=C(CNC(=O)N1CC(=O)Nc2ccccc21)NCCc1c[nH]c2ccccc12 | – | inconclusive: 30.6%
Cc1cccc(C(=O)NNC(=O)C23CC4CC(CC(C4)C2)C3)c1O | inconclusive: 0.58 µM [falling, partial curve] | –
Cc1cc(C)cc(Nc2ncnc3nc[nH]c23)c1 | inconclusive: 2.59 µM [activator, full curve, poor fit] | –
Cc1cc(C)c(NC(=O)COC(=O)c2cccc3c2C(=O)c2ccccc2C3=O)c(C)c1 | inconclusive: 6.51 µM [activator, partial curve, poor fit] | –
Cc1ccc(NC(=O)c2oc3ccc(S(=O)(=O)N4CCC5(CC4)OCCO5)cc3c2C)cc1C | – | inconclusive: 3.45%
CC(=O)Nc1ccc(NC(=O)Cc2ccc(-c3ccccc3)cc2)cc1 | – | inconclusive: -10.2%
O=C(NC1(O)C(=O)c2ccccc2C1=O)c1c(Cl)cccc1Cl | – | inconclusive: -24.4%
CC(=O)c1cccc(NC(=S)NC(=O)c2cncc(Br)c2)c1 | – | inconclusive: 5.08%
O=C(COc1ccccc1)N1CCN(c2nnc(-c3ccccc3)c3ccccc23)CC1 | inconclusive: 2.91 µM [activator, single point] | –
Cc1ccc(C(=O)OCC(=O)Nc2ccccc2C(F)(F)F)cc1S(=O)(=O)N1CCCCC1 | – | inconclusive
O=C(Nc1ccccc1N1CCCC1)c1ccc(Cl)c(S(=O)(=O)N2CCOCC2)c1 | inconclusive: 0.411 µM [activator, partial curve] | –
CCCCCCc1ccc(OCC(=O)O)cc1OCC(=O)O | inconclusive: 0.164 µM [falling, full curve, poor fit] | –
O=C(CCC(=O)N1CCOc2ccccc21)Nc1ccccc1Br | inconclusive: 3.66 µM [activator, partial curve, poor fit] | –

Entries listed so far that contain a COOH group:
SMILES | Potency | lipid storage change, negative = inhibition
O=C(Nc1ccc(C(=O)O)cc1)Nc1cccc([N+](=O)[O-])c1 | – | inconclusive: 25.8%
CCCCCCc1ccc(OCC(=O)O)cc1OCC(=O)O | inconclusive: 0.164 µM [falling, full curve, poor fit] | –
